Data reported in PubChem BioAssay (NCATS).
Inconclusive results, whose numbers are uncertain, are shown with a selection of clear calls. A potency beside an inconclusive call is a rough fit, not a confirmed value. Calls of active or inactive are those of the source. Calls come from the whole dose curve; as a rule, active = well fitted cell-killing curve with a large enough effect; inconclusive = small, poorly fitted or top-dose-only effect, or effect the other way; inactive = no such curve, though single readings can be large or run the other way. *1 amine or outer side, *2 acyl side, *3 side chain or, on linkers, in order; H or OH if unused. Where a SMILES comes first, the peptide text is derived from it. Bridges are numbered along the chain shown (N, C = ends). Roman numbers before positions name the chains, in order. [ ]: non-standard residue; d: D form. Actinocin(9to1) = Cc1c2oc3c(C)ccc(C(=O)[*:1])c3nc-2c(C(=O)[*:2])c(N)c1=O; NMeV = CN[CH](C(=O)O)C(C)C; Sar = CNCC(=O)O

Experiment: Quantitative High-Throughput drug screen in 47 multiple myeloma cell lines against the NCATS MIPE library collection: KMS34_JCRB cell viability assay (AID 1918985); note: nearly all actives have a fitted effect of over 40% in size
Details: KMS34 myeloma viability, CellTiter-Glo ATP luminescence, 48 h; series mostly up to 45.8 µM
Excerpt: PI: Beverly A. Mock Ph.D.
Laboratory of Cancer Biology and Genetics,
Center for Cancer Research, National Cancer Institute,
National Institute of Health, Bethesda, Maryland
Drug resistance and disease progression are common in multiple myeloma (MM) patients, underscoring the need for new therapeutic combinations. […] We hypothesized that effective combinations would reduce MYC expression and enhance p16 activity. […] These preclinical data identify potentially useful drug combinations for evaluation in drug-resistant MM and reveal potential mechanisms of combined drug sensitivity.
Described herein is the primary MIPE qHTS used to cherrypick compounds. Validated compounds were then further tested for potential synergistic activiy.
[1] Peat TJ, Gaikwad SM, Dubois W, Gyabaah-Kessie N, Zhang S, Gorjifard S, Phyo Z, Andres M, Hughitt VK, Simpson RM, Miller MA, Girvin AT, Taylor A, Williams D, D'Antonio N, Zhang Y, Rajagopalan A, Flietner E, Wilson K, Zhang X, Shinn P, Klumpp-Thomas C, McKnight C, Itkin Z, Chen L, Kazandijian D, Zhang J, Michalowski AM, Simmons JK, Keats J, Thomas CJ, Mock BA. Drug combinations identified by high-throughput screening promote cell cycle transition and upregulate Smad pathways in myeloma. Cancer Lett. 2023 Aug 1;568:216284. doi: 10.1016/j.canlet.2023.216284. Epub 2023 Jun 24. PMID: 37356470; PMCID: PMC10408729.
SEQUENCE No. (e.g., 1, 2, 3, etc.); […] (e.g., Cells, Incubation, Reagent, etc.); VALUE and DESCRIPTION.
1; Cells; 5 uL; white, solid bottom 1536-well Greiner assay plate.
2; Compounds; 23 nL; Kalypsis pin tool (Wako USA) equipped with a 1536-well pin head to transfer to the assay plates.
3; Incubation; 48 hours; 37C incubation.
4; Reagent;5uL; CellTiter Glo (Promega).
5; Detector; 425V; Luminescence; Viewlux PerkinElmer.
NOTES (numbers refer to Sequence numbers above)
1. The cell-based screening methods employed in this study were like those previously published. Briefly, the corresponding myeloma cell lines were screened in 1,536-well plates with 500 cells, 5-uL per well for inhibition of cell viability (assessed by measuring ATP levels with CellTiterGlo).
2. NCATS MIPE 4.0 library of approved and investigational drugs were added using the Kalypsis pin tool. Wells treated with DMSO only for 100% viability and media only for 0% viability were used as controls.
3. The assay plates were covered and incubated for 48 hours in a 37C, 5% CO2 incubator with controlled humidity.
4. After 48 hours, CellTilter-GloTM luminescent substrate mix (Promega) reagent was added to the assay plate and plates we incubated for 5 min at room temperature.
5. Signal was measured as median relative luminescence units on a ViewLux (PerkinElmer) multiplate reader.
[1] Heske CM, Davis MI, Baumgart JT, Wilson K, Gormally MV, Chen L, Zhang X, Ceribelli M, Duveau DY, Guha R, Ferrer M, Arnaldez FI, Ji J, Tran HL, Zhang Y, Mendoza A, Helman LJ, Thomas CJ. Matrix Screen Identifies Synergistic Combination of PARP Inhibitors and Nicotinamide Phosphoribosyltransferase (NAMPT) Inhibitors in Ewing Sarcoma. Clin Cancer Res. 2017 Dec 1;23(23):7301-7311. doi: 10.1158/1078-0432.CCR-17-1121. Epub 2017 Sep 12. PMID: 28899971; PMCID: PMC6636827.
Potency is the fitted concentration of half-maximal effect.

Q: Which Potency does the source give for `O=C(O)C1(Cc2cccc(Nc3nccs3)n2)CCC(Oc2cccc(Cl)c2F)CC1` (stereo not given) here?
A: The Potency was inconclusive: 0.526 µM [cytotoxic, full curve, poor fit].

Q: With `CN[C@H]1[C@@H](O)[C@@H]2O[C@@H]3O[C@H](C)CC(=O)[C@]3(O)O[C@@H]2[C@@H](NC)[C@H]1O` as the molecule, how does the Potency read?
A: Its Potency is active: 1.18 µM.

Q: For `CC(C)(O)CC[C@@H](O)[C@](C)(O)[C@H]1CC[C@@]2(O)C3=CC(=O)[C@@H]4C[C@@H](O)[C@@H](O)C[C@]4(C)[C@@H]3CC[C@]12C`, which Potency is on record?
A: Its Potency is “inactive”.

Q: For `Cc1coc2c1C(=O)C(=O)c1c-2ccc2c(C)cccc12`, which Potency is on record?
A: The Potency was active: 0.166 µM.

Q: With `O=C(O)COCCN1CCN(C(c2ccccc2)c2ccc(Cl)cc2)CC1` (stereo not given) as the molecule, how does the Potency read?
A: The Potency was “inactive”.

Q: With `COc1cccc2c1C(=O)c1c(O)c3c(c(O)c1C2=O)C[C@@](O)(C(C)=O)C[C@H]3O[C@H]1C[C@H](N)[C@H](O)[C@H](C)O1` as the molecule, how does the Potency read?
A: The Potency was inconclusive: 0.0418 µM [cytotoxic, full curve, poor fit].

Q: For `CC(C)c1cc(-c2n[nH]c(=O)n2-c2ccc3c(ccn3C)c2)c(O)cc1O`, which Potency is on record?
A: The Potency was active: 0.0264 µM.

Q: With `O=C(CS(=O)Cc1ccco1)NCC=CCOc1cc(CN2CCCCC2)ccn1` (stereo not given) as the molecule, how does the Potency read?
A: Its Potency is “inactive”.

Q: Which Potency does the source give for `Nc1ncnc2c1c(-c1cnc3[nH]ccc3c1)nn2C1CCCC1` here?
A: The Potency was active: 1.87 µM.

Q: Which Potency does the source give for `Cc1cn[nH]c1` here?
A: The Potency was active: 0.0662 µM.

Q: With `CC(=O)Nc1nc(C)c(-c2ccc(Cl)c(S(=O)(=O)NCCO)c2)s1` as the molecule, how does the Potency read?
A: The Potency was inconclusive: 5.26 µM [cytotoxic, partial curve].

Q: For `NNC(=O)c1ccncc1`, which Potency is on record?
A: Its Potency is inconclusive: 0.0209 µM [rising, full curve].

Q: For `Cc1cc(Nc2cc(CN3CCOCC3)c3nc(C)c(Cc4ccc(Cl)cc4F)n3n2)n[nH]1`, which Potency is on record?
A: The Potency was inconclusive: 2.64 µM [cytotoxic, partial curve, poor fit].

Q: Which Potency does the source give for `CO[C@@H]1[C@@H](OC(N)=O)[C@@H](O)[C@H](Oc2ccc3c(O)c(NC(=O)c4ccc(O)c(CC=C(C)C)c4)c(=O)oc3c2C)OC1(C)C` here?
A: The Potency was active: 1.48 µM.

Q: With `CNC(=O)c1c(F)cccc1Nc1nc(Nc2cc3c(cc2OC)CCN3C(=O)CN(C)C)nc2[nH]ccc12` as the molecule, how does the Potency read?
A: Its Potency is active: 8.33 µM.

Q: Which Potency does the source give for `C=CCNC1=C2C[C@@H](C)C[C@H](OC)[C@@H](O)[C@@H](C)C=C(C)[C@H](OC(N)=O)[C@@H](OC)C=CC=C(C)C(=O)NC(=CC1=O)C2=O` here?
A: The Potency was active: 0.235 µM.

Q: For `CN1CCN(c2c(F)cc3c(=O)c(C(=O)O)cn4c3c2OCN4C)CC1`, which Potency is on record?
A: Its Potency is “inactive”.

Q: With `O=C1NCCc2[nH]c(-c3ccncc3)cc21` as the molecule, how does the Potency read?
A: The Potency was active: 5.26 µM.

Q: For `C=CC(=O)Nc1cccc(Oc2nc(Nc3ccc(N4CCN(C)CC4)cc3)ncc2Cl)c1`, which Potency is on record?
A: The Potency was active: 9.35 µM.

Q: Which Potency does the source give for `CC(N)C12CC3CC(CC(C3)C1)C2` (stereo not given) here?
A: The Potency was “inactive”.

Q: With `Cc1ccc(NC(=O)C2(c3ccc4c(c3)OC(F)(F)O4)CC2)nc1-c1cccc(C(=O)O)c1` as the molecule, how does the Potency read?
A: Its Potency is active: 0.0935 µM.

Q: Which Potency does the source give for `CN(C)Cc1c(C(=O)NCCOc2ccc(C(=O)NO)cc2)oc2ccccc12` here?
A: The Potency was active: 0.526 µM.

Q: Which Potency does the source give for `CN1CCN(CCCN2c3ccccc3Sc3ccc(C(F)(F)F)cc32)CC1` here?
A: The Potency was “inactive”.

Q: With `CCOc1cc2c(c(F)c1OCC)C(=N)N(CC(=O)c1cc(N3CCOCC3)c(OC)c(C(C)(C)C)c1)C2` as the molecule, how does the Potency read?
A: The Potency was active: 23.5 µM.

Q: For `CN(C)CCc1c[nH]c2ccc(CS(=O)(=O)N3CCCC3)cc12`, which Potency is on record?
A: Its Potency is “inactive”.

Q: Which Potency does the source give for `O=C1CCc2cc(OCCCCc3nnnn3C3CCCCC3)ccc2N1` here?
A: Its Potency is inconclusive: 0.0372 µM [rising, full curve, poor fit].

Q: With `C[C@H](NCc1ccc(OCc2cccc(F)c2)cc1)C(N)=O` as the molecule, how does the Potency read?
A: Its Potency is active: 10.5 µM.

Q: With `O=C1c2c(O)cccc2[C@@H]([C@@H]2O[C@H](CO)[C@@H](O)[C@H](O)[C@H]2O)c2cc(CO)cc(O)c21` as the molecule, how does the Potency read?
A: Its Potency is “inactive”.

Q: With `CCCCCCCCCCCCCCCCCCCCCCO` as the molecule, how does the Potency read?
A: The Potency was “inactive”.

Q: With `COc1cc(CCc2cc(NC(=O)c3ccc(N4C[C@@H](C)N[C@@H](C)C4)cc3)n[nH]2)cc(OC)c1` as the molecule, how does the Potency read?
A: Its Potency is active: 16.6 µM.

Q: Which Potency does the source give for `O=C(c1ccc(F)cc1)N1CCC[C@H](c2nc(-c3ccc(F)cc3)no2)C1` here?
A: Its Potency is “inactive”.

Q: With `Cc1c(Cn2c(C)nc3c(C(=O)O)cc(N4CCOCC4)cc32)cccc1C(F)(F)F` as the molecule, how does the Potency read?
A: The Potency was inconclusive: 0.0047 µM [cytotoxic, full curve, poor fit].

Q: For `COc1cc(C)c(Sc2cnc(NC(=O)c3ccc(CNC(C)C(C)C)cc3)s2)cc1C(=O)N1CCN(C(C)=O)CC1` (stereo not given), which Potency is on record?
A: The Potency was inconclusive: 18.7 µM [cytotoxic, partial curve, poor fit].

Q: With `CNC(=O)c1ccccc1Sc1ccc2c(C=Cc3ccccn3)n[nH]c2c1` as the molecule, how does the Potency read?
A: The Potency was inconclusive: 0.372 µM [cytotoxic, full curve, poor fit].

Q: Which Potency does the source give for `OCCNC1CCCc2c1[nH]c1ccc(-c3ccccc3)cc21` (stereo not given) here?
A: The Potency was inconclusive: 20.9 µM [cytotoxic, partial curve].

Q: Which Potency does the source give for `N=c1nc(N2CCCCC2)cc(N)n1O` here?
A: The Potency was inconclusive: 0.0012 µM [rising, full curve, poor fit].

Q: With `COc1cc(OC)c(C=CS(=O)(=O)Cc2ccc(OC)c(NCC(=O)O)c2)c(OC)c1` as the molecule, how does the Potency read?
A: Its Potency is active: 0.209 µM.

Q: For `COC(=O)Nc1nc2ccc(C(=O)c3ccc(F)cc3)cc2[nH]1`, which Potency is on record?
A: The Potency was active: 0.935 µM.

Q: Which Potency does the source give for `Cc1c2oc3c(C)ccc(C(=O)NC4C(=O)NC(C(C)C)C(=O)N5CCCC5C(=O)N(C)CC(=O)N(C)C(C(C)C)C(=O)OC4C)c3nc-2c(C(=O)NC2C(=O)NC(C(C)C)C(=O)N3CCCC3C(=O)N(C)CC(=O)N(C)C(C(C)C)C(=O)OC2C)c(N)c1=O` (stereo not given) (I: TVP[Sar][NMeV] / II: TVP[Sar][NMeV]; ester I:1-I:C, II:1-II:C; linker I:N-II:N via Actinocin(9to1); configuration not given here) here?
A: The Potency was “inactive”.

Q: With `O=S(=O)(c1cccc2cnccc12)N1CCCNCC1` as the molecule, how does the Potency read?
A: The Potency was inconclusive: 23.5 µM [cytotoxic, single point].
